Values from PubChem BioAssay AID504808 (Drosophila RNAi Screening Center, 2011)

Screen: 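Genes whose loss lifts activity of an E2F-responsive reporter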 (primary screen)
Cell system: Drosophila S2 cells
Reagents: long dsRNA against Drosophila genes
Measurement: 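Dual luciferase plate measurements; E2F-specific signal taken as firefly over Renilla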
Direction: E2F firefly: higher = more E2F reporter activity; Renilla normaliser: higher = more normaliser reporter signal
Rule for the call: 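Called active if the normalised E2F reporter went up by over 50%; the cutoff is arbitrary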
The screen tested about 21,000 reagents; below is an unselected part of those that have a named target and a result. Over the whole deposit, 18 (0.084%) are marked active. 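Raw counts without plate normalisation, one of two replicates; the ratio scores behind the calls were not deposited.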 Not given: the amount of reagent, the time to read-out.

CG32374 [DRSC10986]: E2F firefly, rep 1 = 1.08e5; Renilla normaliser, rep 1 = 3929; Call = inactive
CG42709 [DRSC10277]: E2F firefly, rep 1 = 83023; Renilla normaliser, rep 1 = 3658; Call = inactive
Tsp42Eo [DRSC06184]: E2F firefly, rep 1 = 1.50e5; Renilla normaliser, rep 1 = 5343; Call = inactive
Yp2 [DRSC18732]: E2F firefly, rep 1 = 6826; Renilla normaliser, rep 1 = 772; Call = inactive
CG7214 [DRSC03028]: E2F firefly, rep 1 = 97410; Renilla normaliser, rep 1 = 3627; Call = inactive
CG4972 [DRSC02798]: E2F firefly, rep 1 = 1.55e5; Renilla normaliser, rep 1 = 5235; Call = inactive
Or42a [DRSC04912]: E2F firefly, rep 1 = 1.05e5; Renilla normaliser, rep 1 = 4614; Call = inactive
CG12112 [DRSC17809]: E2F firefly, rep 1 = 7643; Renilla normaliser, rep 1 = 696; Call = inactive
CG1603 [DRSC06602]: E2F firefly, rep 1 = 74026; Renilla normaliser, rep 1 = 3350; Call = inactive
pasi2 [DRSC16380]: E2F firefly, rep 1 = 1.40e5; Renilla normaliser, rep 1 = 8318; Call = inactive
unc [DRSC20511]: E2F firefly, rep 1 = 1.41e5; Renilla normaliser, rep 1 = 6431; Call = inactive
Ptp69D [DRSC11258]: E2F firefly, rep 1 = 89740; Renilla normaliser, rep 1 = 3981; Call = inactive
CG31741 [DRSC02887]: E2F firefly, rep 1 = 1.00e5; Renilla normaliser, rep 1 = 4321; Call = inactive
CG3419 (retired record) [DRSC04368]: E2F firefly, rep 1 = 1.26e5; Renilla normaliser, rep 1 = 5442; Call = inactive
CG3419 (retired record) [DRSC04369]: E2F firefly, rep 1 = 1.09e5; Renilla normaliser, rep 1 = 4414; Call = inactive
CG32440 [DRSC11480]: E2F firefly, rep 1 = 89448; Renilla normaliser, rep 1 = 3835; Call = inactive
CG17806 [DRSC15276]: E2F firefly, rep 1 = 66494; Renilla normaliser, rep 1 = 3314; Call = inactive
CG7879 [DRSC08600]: E2F firefly, rep 1 = 65326; Renilla normaliser, rep 1 = 3384; Call = inactive
CG6912 [DRSC16132]: E2F firefly, rep 1 = 1.09e5; Renilla normaliser, rep 1 = 6148; Call = inactive
ND-24 [DRSC19960]: E2F firefly, rep 1 = 1.59e5; Renilla normaliser, rep 1 = 5638; Call = inactive
CG15478 [DRSC18057]: E2F firefly, rep 1 = 3322; Renilla normaliser, rep 1 = 253; Call = inactive
Ilp1 [DRSC10174]: E2F firefly, rep 1 = 1.27e5; Renilla normaliser, rep 1 = 6088; Call = inactive
CG32511 (retired record) [DRSC20697]: E2F firefly, rep 1 = 56221; Renilla normaliser, rep 1 = 3728; Call = inactive
CG8543 [DRSC10990]: E2F firefly, rep 1 = 87427; Renilla normaliser, rep 1 = 4202; Call = inactive
yellow-g [DRSC08575]: E2F firefly, rep 1 = 94505; Renilla normaliser, rep 1 = 4277; Call = inactive
Hat1 [DRSC12298]: E2F firefly, rep 1 = 1.48e5; Renilla normaliser, rep 1 = 6626; Call = inactive
CG5445 [DRSC19943]: E2F firefly, rep 1 = 1.68e5; Renilla normaliser, rep 1 = 5135; Call = inactive
Nep2 [DRSC12126]: E2F firefly, rep 1 = 91843; Renilla normaliser, rep 1 = 3880; Call = inactive

Reformatted: 4 of the entries above.
CG12112 [DRSC17809]
- E2F firefly, rep 1: 7643
- Renilla normaliser, rep 1: 696
- Call: inactive

CG1603 [DRSC06602]
- E2F firefly, rep 1: 74026
- Renilla normaliser, rep 1: 3350
- Call: inactive

pasi2 [DRSC16380]
- E2F firefly, rep 1: 1.40e5
- Renilla normaliser, rep 1: 8318
- Call: inactive

unc [DRSC20511]
- E2F firefly, rep 1: 1.41e5
- Renilla normaliser, rep 1: 6431
- Call: inactive
